From US11999746B2, “Compounds” (GlaxoSmithKline Intellectual Property Development Limited, priority 2014, dated 2024)
Some of these results come from one statement about several compounds together.

Target: Recombinant human PLA2 VIIB (Novel Serine Dependent Lipase, NSDL) (Homo sapiens, UniProt Q99487)
Experiment: (2a) PLA2 VIIB assay (PED6 substrate)
Assay type: biochemical
Conditions: Examples 1-9, 11-105, 107-193, 203-259 and 413-430 were tested here

Selectivity between human recombinant Lp-PLA2 and PLA2 VIIB, at least 100 fold:
N#Cc1cc(COc2cc3n(c(=O)n2)CC2CCCCN32)ccc1Oc1ccc(C(F)(F)F)cc1 (centres unmarked) [Example E23, 5-(((1-Oxo-6,7,8,9,9a,10-hexahydro-1H-pyrido[1′,2′:3,4]imidazo[1,2-c]pyrimidin-3-yl)oxy)methyl)-2-(4-(trifluoromethyl)phenoxy)benzonitrile]
N#Cc1cc(COc2cc3n(c(=O)n2)CC2CCCCN32)ccc1Oc1ccc(Cl)c(F)c1 (centres unmarked) [Example E24, 2-(4-Chloro-3-fluorophenoxy)-5-(((1-oxo-6,7,8,9,9a,10-hexahydro-1H pyrido-[1′,2′:3,4]imidazo[1,2-c]pyrimidin-3-yl)oxy)methyl)benzonitrile]
O=c1nc(OCc2cc(F)c(Oc3ccc(C(F)(F)F)nc3)c(F)c2)cc2n1CC1CCCCN21 (centres unmarked) [Example E25, 3-((3,5-Difluoro-4-((6-(trifluoromethyl)pyridin-3-yl)oxy)benzyl)oxy)-6,7,8,9,9a,10-hexahydro-1H-pyrido[1′,2′:3,4]imidazo[1,2-c]pyrimidin-1-one]
O=c1nc(OCc2cc(F)c(Oc3ccnc(Cl)c3)c(F)c2)cc2n1CC1CCCCN21 (centres unmarked) [Example E26, 3-((4-((2-Chloropyridin-4-yl)oxy)-3,5-difluorobenzyl)oxy)-6,7,8,9,9a,10-hexahydro-1H-pyrido[1,2′:3,4]imidazo[1,2-c]pyrimidin-1-one]
O=c1nc(OCc2ccc(F)c(Cl)c2)cc2n1CC1CCCCN21 (centres unmarked) [Example E27, 3-((3-Chloro-4-fluorobenzyl)oxy)-6,7,8,9,9a,10-hexahydro-1H-pyrido[1′,2′:3,4]imidazo[1,2 c]pyrimidin-1-one]
N#Cc1cc(Oc2ccc(COc3cc4n(c(=O)n3)CC3CCCCN43)cc2F)cc(C(F)(F)F)c1 (centres unmarked) [Example E28, 3-(2-Fluoro-4-(((1-oxo-6,7,8,9,9a,10-hexahydro-1H-pyrido[1′,2′:3,4]imidazo[1,2-c]pyrimidin-3-yl)oxy)methyl)phenoxy)-5-(trifluoromethyl)benzonitrile]
O=c1nc(OCc2ccc(F)c(F)c2)cc2n1C[C@H]1CCCCN21 [Example E30, (R)-3-((3,4-Difluorobenzyl)oxy)-6,7,8,9,9a,10-hexahydro-1H-pyrido[1′,2′:3,4]imidazo[1,2-c]pyrimidin-1-one]
O=c1nc(OCc2ccc(F)c(F)c2)cc2n1C[C@@H]1CCCCN21 [Example E31, (S)-3-((3,4-Difluorobenzyl)oxy)-6,7,8,9,9a,10-hexahydro-1H-pyrido[1′,2′:3,4]imidazo[1,2-c]pyrimidin-1-one]
O=c1nc(OCc2cc(F)c(F)c(F)c2)cc2n1C[C@@H]1CCCCN21 [Example E32, (S)-3-((3,4,5-Trifluorobenzyl)oxy)-6,7,8,9,9a,10-hexahydro-1H-pyrido[1′,2′:3,4]imidazo[1,2-c]pyrimidin-1-one]
N#Cc1cccc(COc2cc3n(c(=O)n2)C[C@@H]2CCCCN32)c1 [Example E33, (S)-3-(((1-Oxo-6,7,8,9,9a,10-hexahydro-1H-pyrido[1′,2′:3,4]imidazo[1,2-c]pyrimidin-3-yl)oxy)methyl)benzonitrile]
O=c1nc(OCc2ccc(F)cc2)cc2n1C[C@@H]1CCCCN21 [Example E34, (S)-3-((4-Fluorobenzyl)oxy)-6,7,8,9,9a,10-hexahydro-1H-pyrido[1′,2′:3,4]imidazo-[1,2-c] pyrimidin-1-one]
O=c1nc(OCCc2cccs2)cc2n1C[C@@H]1CCCCN21 [Example E36, (S)-3-(2-(Thiophen-2-yl)ethoxy)-6,7,8,9,9a,10-hexahydro-1H-pyrido[1′,2′:3,4]imidazo[1,2-c]pyrimidin-1-one]
O=c1nc(OCc2cc(F)c(Oc3ccnc(C(F)(F)F)c3)c(F)c2)cc2n1CC1CCCCN21 (centres unmarked) [Example E37, 3-((3,5-difluoro-4-((2-(trifluoromethyl)pyridin-4-yl)oxy)benzyl)oxy)-6,7,8,9,9a,10-hexahydro-1H-pyrido[1′,2′:3,4]imidazo[1,2-c]pyrimidin-1-one]
O=c1nc(OCc2ccc(Oc3ccnc(C(F)(F)F)c3)c(F)c2)cc2n1C[C@@H]1CCCCN21 [Example E40, (S)-3-((3-Fluoro-4-((2-(trifluoromethyl)pyridin-4-yl)oxy)benzyl)oxy)-6,7,8,9,9a,10-hexahydro-1H-pyrido[1′,2′:3,4]imidazo[1,2-c]pyrimidin-1-one]
O=c1nc(OCc2ccc(Oc3cncc(C(F)(F)F)c3)c(F)c2)cc2n1C[C@@H]1CCCCN21 [Example E42, (S)-3-((3-fluoro-4-((5-(trifluoromethyl)pyridin-3-yl)oxy)benzyl)oxy)-6,7,8,9,9a,10-hexahydro-1H-pyrido[1′,2′:3,4]imidazo[1,2-c]pyrimidin-1-one]
O=c1nc(OCc2ccc(Oc3cnc(C(F)(F)F)nc3)c(F)c2)cc2n1CC1CCCCN21 (centres unmarked) [Example E43, 3-((3-fluoro-4-((2-(trifluoromethyl)pyrimidin-5-yl)oxy)benzyl)oxy)-6,7,8,9,9a,10-hexahydro-1H-pyrido[1′,2′:3,4]imidazo[1,2-c]pyrimidin-1-one]
O=c1nc(OCc2ccc(Oc3cncc(C(F)(F)F)c3)c(F)c2)cc2n1CC1CCCCN21 (centres unmarked) [Example E47, 3-((3-Fluoro-4-((5-(trifluoromethyl)pyridin-3-yl)oxy)benzyl)oxy)-6,7,8,9,9a,10-hexahydro-1H-pyrido[1′,2′:3,4]imidazo[1,2-c]pyrimidin-1-one]
Cn1cc(Oc2c(F)cc(COc3cc4n(c(=O)n3)C[C@@H]3CCCCN43)cc2F)cn1 [Example E50, (S)-3-((3,5-difluoro-4-((1-methyl-1H-pyrazol-4-yl)oxy)benzyl)oxy)-6,7,8,9,9a,10-hexahydro-1H-pyrido[1′,2′:3,4]imidazo[1,2-c]pyrimidin-1-one]
Cn1cc(Oc2ccc(COc3cc4n(c(=O)n3)C[C@@H]3CCCCN43)cc2F)cn1 [Example E51, (S)-3-((3-fluoro-4-((1-methyl-1H-pyrazol-4-yl)oxy)benzyl)oxy)-6,7,8,9,9a,10-hexahydro-1H-pyrido[1,2′:3,4]imidazo[1,2-c]pyrimidin-1-one]
O=c1nc(OCc2cccc(F)c2)cc2n1C[C@H]1CCCCN21 [Example E52, (R)-3-((3-Fluorobenzyl)oxy)-6,7,8,9,9a,10-hexahydro-1H-pyrido[1′,2′:3,4]imidazo[1,2-c] pyrimidin-1-one]
